US6803232B1, “NPY-Y7 receptor gene” (The Garvan Institute of Medical Research, priority 1998, dated 2004)
No constants are given. Whether binding was seen depends on the method and setting. Some results given as binding are weak or reduced against the parent protein; the word gives no strength.

Protein sequences, listed by entry. Tags and fused reporters are not part of them. Lines headed by an entry give the natural chain unless they say otherwise; changes in a name come on top.
UniProt Q9Y5X5: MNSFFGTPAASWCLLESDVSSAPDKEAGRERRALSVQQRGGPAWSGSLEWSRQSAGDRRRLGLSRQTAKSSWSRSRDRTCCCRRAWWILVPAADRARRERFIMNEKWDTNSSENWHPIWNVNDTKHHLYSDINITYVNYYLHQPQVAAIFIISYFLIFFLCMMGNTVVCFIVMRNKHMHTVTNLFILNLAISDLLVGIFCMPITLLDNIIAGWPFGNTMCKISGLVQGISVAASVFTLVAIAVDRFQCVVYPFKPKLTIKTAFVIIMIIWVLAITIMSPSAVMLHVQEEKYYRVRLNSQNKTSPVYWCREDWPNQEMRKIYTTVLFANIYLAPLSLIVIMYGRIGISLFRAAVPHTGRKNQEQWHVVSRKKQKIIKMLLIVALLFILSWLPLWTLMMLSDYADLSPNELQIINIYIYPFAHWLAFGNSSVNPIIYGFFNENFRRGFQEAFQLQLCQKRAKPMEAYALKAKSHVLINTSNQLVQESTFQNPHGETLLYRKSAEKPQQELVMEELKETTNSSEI

Biological target: human NPY-Y7 receptor (human) (UniProt Q9Y5X5)
Assay: rank of potency, displacement of [125I]PYY on Y7 membranes

binding, binds:
(Leu31, Pro34)NPY (from UniProt P01303 29-64) (peptide)
NPY (from UniProt P01303 29-64) (peptide)
[3-36]NPY (from UniProt P01303 31-64) (peptide)
[13-36]NPY (from UniProt P01303 41-64) (peptide)
APLEPVYPGDNATPEQMAQYAADLRRYINMLTRPRY (peptide, UniProt P01298 30-65, looked up) [PP]
